This experiment deals with full-length GST-TPXL3 (TPX2-LIKE 3) (Arabidopsis thaliana). Briefly: pull-down; GST-fused TPXL3 or TPXL3 truncations and His-fused AUR1 mixed with glutathione beads, 4 °C for 2 h; beads washed 5 times; eluted by boiling in SDS loading buffer, SDS-PAGE; both purified.

No constants are given. Whether binding was seen depends on the method and setting. Binding can be weak; no strength is given. Sequences can lack the tags named with a protein.

B1: 6xHis-AUR1 (Aurora 1, an α Aurora kinase of Arabidopsis thaliana) (enzyme, UniProt Q9M077 1-294)
chain: MAIPTETQHQEKEASDASAAAAQKRWTLSDFDIGKPLGRGKFGHVYLAREKRSNHVVALKVLFKSQLQQSQVEHQLRREVEIQSHLRHPNILRLYGYFYDQKRVYLILEYAARGELYKDLQKCKYFSERRAATYVASLARALIYCHGKHVIHRDIKPENLLIGAQGELKIADFGWSVHTFNRRRTMCGTLDYLPPEMVESVEHDASVDIWSLGILCYEFLYGVPPFEAMEHSDTYRRIVQVDLKFPPKPIISASAKDLISQMLVKESSQRLPLHKLLEHPWIVQNADPSGIYRV
As to B1, the binding entry is “binds”.
